From article PMC5148605, “Prefabrication of a ribosomal protein subcomplex essential for eukaryotic ribosome formation” (eLife, 2016) come the findings set out here.

Amino acid sequences for entries named in this document (tags omitted).
UniProt P53067: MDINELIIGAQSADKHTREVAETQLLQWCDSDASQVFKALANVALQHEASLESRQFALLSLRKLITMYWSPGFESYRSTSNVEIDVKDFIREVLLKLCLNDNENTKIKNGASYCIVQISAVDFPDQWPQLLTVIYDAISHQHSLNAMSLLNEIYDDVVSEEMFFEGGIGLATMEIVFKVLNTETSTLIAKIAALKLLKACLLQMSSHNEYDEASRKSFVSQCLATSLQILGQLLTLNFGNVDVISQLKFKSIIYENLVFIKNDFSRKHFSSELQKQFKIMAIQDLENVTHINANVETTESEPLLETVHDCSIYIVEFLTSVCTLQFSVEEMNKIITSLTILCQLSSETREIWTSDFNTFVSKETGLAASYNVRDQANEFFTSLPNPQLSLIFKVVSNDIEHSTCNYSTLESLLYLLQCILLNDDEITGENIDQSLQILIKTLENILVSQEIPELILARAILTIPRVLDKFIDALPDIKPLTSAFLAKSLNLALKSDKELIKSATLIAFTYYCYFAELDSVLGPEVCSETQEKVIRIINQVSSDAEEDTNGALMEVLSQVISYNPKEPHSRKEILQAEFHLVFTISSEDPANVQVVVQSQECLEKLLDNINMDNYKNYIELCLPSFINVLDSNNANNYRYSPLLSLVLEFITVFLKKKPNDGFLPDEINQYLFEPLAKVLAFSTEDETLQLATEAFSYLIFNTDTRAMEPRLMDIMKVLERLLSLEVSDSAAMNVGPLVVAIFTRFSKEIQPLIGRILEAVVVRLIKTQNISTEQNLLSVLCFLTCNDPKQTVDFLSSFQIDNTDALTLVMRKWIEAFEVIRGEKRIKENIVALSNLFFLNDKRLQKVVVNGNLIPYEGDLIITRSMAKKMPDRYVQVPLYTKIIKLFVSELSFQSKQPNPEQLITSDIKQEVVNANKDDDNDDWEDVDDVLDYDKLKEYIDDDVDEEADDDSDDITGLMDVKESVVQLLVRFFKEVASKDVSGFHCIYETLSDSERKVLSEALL
UniProt Q06142: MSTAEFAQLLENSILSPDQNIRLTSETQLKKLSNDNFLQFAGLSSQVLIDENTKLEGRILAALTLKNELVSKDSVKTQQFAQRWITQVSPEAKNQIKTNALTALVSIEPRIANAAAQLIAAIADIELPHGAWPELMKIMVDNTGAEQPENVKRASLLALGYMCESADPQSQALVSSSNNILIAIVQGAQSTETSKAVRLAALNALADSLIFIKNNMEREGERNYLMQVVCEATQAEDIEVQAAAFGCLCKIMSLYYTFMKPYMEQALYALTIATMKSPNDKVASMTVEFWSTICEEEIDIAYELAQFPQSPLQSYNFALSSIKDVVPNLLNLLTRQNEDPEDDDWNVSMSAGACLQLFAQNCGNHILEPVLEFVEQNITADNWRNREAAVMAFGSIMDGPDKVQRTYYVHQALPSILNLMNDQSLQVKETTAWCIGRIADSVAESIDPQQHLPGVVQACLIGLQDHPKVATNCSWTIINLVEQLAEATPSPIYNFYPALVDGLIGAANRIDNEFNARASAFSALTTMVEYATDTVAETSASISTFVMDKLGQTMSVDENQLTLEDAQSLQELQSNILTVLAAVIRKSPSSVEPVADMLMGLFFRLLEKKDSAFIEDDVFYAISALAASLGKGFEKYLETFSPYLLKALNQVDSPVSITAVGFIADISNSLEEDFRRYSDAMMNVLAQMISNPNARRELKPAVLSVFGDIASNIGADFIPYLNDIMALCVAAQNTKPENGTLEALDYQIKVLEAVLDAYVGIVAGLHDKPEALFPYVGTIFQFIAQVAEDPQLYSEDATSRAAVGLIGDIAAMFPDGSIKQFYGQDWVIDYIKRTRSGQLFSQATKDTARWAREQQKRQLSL

These are yes or no findings as the source states them, for the method shown. Some binding calls cover weakened binding; strength is not graded here. For some of these results: Where a sequence is shown, tags or fusion partners need not be part of it.

For assay [1], the target named is GST-Kap114 (S. cerevisiae) (UniProt P53067). Put plainly: pull-down; GST-tagged importins immobilised on Glutathione Sepharose, incubated with buffer, purified Fap7 or Fap7:uS11 for 1 hr, in presence of 100 µl competing E. coli lysate; Coomassie and Western; both purified.
Assay [2] deals with T1, GST-Kap104 (S. cerevisiae) (UniProt P38217).
T1 sequence: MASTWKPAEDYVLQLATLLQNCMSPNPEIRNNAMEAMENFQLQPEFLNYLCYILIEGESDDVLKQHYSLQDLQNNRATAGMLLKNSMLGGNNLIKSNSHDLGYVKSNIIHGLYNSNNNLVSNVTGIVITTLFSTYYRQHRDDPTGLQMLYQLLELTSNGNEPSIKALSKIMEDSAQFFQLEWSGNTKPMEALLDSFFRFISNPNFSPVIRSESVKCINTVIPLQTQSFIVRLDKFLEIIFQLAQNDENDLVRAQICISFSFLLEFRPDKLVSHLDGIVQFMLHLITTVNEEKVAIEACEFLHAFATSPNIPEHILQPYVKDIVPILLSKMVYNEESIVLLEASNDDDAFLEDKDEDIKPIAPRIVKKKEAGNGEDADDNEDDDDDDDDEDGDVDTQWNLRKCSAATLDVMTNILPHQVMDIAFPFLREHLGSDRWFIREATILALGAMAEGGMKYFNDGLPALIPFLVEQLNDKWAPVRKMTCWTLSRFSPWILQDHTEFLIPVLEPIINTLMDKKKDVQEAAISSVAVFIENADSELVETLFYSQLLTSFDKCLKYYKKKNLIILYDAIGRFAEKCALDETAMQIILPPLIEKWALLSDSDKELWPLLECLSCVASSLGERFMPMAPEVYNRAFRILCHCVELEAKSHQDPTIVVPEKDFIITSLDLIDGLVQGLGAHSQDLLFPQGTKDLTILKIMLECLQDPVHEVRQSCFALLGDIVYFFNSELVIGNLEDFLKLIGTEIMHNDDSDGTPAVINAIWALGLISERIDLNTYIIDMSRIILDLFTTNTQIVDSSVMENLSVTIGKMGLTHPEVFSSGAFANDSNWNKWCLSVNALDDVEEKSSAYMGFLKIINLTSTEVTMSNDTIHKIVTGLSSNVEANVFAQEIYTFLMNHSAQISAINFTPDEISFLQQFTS
The description is as above.

Assay [3] has as its target GST-Kap95 (S. cerevisiae) (UniProt Q06142). The description is as above.
In assay [4] the target is T2, GST-Pdr6 (S. cerevisiae) (UniProt P32767).
T2 sequence: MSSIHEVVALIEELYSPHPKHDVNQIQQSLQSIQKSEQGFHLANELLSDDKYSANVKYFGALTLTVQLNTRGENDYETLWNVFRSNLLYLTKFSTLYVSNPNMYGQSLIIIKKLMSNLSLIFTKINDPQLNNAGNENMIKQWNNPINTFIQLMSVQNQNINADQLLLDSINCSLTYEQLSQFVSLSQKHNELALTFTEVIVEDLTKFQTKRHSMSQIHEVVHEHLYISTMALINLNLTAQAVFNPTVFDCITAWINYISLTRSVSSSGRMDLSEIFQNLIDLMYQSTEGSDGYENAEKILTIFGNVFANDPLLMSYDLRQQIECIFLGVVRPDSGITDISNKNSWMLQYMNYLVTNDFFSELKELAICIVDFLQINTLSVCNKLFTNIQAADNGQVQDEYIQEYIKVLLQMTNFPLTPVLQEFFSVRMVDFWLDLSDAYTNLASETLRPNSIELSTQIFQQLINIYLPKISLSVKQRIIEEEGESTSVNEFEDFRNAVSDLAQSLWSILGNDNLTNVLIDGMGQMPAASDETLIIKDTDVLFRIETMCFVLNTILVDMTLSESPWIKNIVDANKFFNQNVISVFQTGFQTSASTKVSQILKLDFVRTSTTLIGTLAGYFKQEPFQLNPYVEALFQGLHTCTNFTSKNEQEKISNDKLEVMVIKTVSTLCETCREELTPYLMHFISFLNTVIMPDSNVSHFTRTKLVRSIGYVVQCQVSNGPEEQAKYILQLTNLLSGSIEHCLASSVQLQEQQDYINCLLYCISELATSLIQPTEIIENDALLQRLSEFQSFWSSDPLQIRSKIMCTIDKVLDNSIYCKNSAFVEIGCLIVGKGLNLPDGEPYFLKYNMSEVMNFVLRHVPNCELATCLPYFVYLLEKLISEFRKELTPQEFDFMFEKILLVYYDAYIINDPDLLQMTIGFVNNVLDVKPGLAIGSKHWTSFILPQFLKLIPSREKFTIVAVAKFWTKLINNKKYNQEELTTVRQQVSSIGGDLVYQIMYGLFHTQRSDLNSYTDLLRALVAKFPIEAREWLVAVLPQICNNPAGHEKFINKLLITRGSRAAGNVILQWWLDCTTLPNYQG
Described as above.

Assay [5] has as its target T3, GST-Pse1 (S. cerevisiae) (UniProt P32337).
T3 sequence: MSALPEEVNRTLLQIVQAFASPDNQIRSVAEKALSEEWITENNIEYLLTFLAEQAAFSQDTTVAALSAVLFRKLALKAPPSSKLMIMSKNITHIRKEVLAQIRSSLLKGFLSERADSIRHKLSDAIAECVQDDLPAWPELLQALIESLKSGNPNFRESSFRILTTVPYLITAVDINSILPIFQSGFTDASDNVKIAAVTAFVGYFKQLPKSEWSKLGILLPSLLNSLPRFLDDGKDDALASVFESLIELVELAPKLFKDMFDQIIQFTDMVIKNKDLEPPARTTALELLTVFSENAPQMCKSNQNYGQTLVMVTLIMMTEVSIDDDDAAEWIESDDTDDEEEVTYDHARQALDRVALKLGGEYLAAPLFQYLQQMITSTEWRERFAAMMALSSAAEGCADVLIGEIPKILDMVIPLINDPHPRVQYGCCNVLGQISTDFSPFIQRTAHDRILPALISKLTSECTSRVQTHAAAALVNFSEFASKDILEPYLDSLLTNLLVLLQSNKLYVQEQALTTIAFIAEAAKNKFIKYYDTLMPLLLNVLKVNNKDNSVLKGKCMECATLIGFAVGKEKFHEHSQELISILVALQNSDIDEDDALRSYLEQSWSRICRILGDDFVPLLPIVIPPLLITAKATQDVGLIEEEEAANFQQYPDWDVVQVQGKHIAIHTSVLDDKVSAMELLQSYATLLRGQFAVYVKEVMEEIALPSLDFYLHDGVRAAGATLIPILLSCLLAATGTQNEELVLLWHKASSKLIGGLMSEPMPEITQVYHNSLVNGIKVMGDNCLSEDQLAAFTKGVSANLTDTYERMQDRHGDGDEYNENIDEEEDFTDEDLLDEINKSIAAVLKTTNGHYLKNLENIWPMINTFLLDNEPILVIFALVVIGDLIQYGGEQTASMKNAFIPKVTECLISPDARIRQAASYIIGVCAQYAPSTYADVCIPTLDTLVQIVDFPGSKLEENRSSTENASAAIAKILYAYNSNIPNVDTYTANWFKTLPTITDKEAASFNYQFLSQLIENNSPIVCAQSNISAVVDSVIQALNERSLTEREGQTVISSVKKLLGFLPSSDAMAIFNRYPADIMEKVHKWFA
The assay is described as above.

Assay [6] addresses T4, Enp1-TAP (S. cerevisiae), P38333.
T4 chain: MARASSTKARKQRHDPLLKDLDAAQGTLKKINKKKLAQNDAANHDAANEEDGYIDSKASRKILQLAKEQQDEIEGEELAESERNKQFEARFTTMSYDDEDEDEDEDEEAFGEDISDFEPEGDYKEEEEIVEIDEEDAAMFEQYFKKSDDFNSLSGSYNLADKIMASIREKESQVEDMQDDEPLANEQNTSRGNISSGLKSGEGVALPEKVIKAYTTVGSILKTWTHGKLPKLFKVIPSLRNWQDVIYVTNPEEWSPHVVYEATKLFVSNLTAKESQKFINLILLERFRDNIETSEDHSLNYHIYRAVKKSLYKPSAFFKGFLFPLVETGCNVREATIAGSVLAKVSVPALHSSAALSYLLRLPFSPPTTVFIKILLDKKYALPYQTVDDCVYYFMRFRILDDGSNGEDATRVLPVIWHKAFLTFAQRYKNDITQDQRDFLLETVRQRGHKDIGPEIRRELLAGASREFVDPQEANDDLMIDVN
Put plainly: tandem affinity purification (TAP) with Western analysis; TAP-tagged baits isolated from yeast cells (wild type; also Fap7- or Tsr2-depleted cells and Tsr2-depleted cells co-overexpressing FAP7 and uS11); calmodulin eluates; pre-ribosomal particles. The note with it: remark: other sources report otherwise.

Assay [7] has as its target T5, Enp1-TAP (S. cerevisiae) (UniProt P38333).
T5 sequence: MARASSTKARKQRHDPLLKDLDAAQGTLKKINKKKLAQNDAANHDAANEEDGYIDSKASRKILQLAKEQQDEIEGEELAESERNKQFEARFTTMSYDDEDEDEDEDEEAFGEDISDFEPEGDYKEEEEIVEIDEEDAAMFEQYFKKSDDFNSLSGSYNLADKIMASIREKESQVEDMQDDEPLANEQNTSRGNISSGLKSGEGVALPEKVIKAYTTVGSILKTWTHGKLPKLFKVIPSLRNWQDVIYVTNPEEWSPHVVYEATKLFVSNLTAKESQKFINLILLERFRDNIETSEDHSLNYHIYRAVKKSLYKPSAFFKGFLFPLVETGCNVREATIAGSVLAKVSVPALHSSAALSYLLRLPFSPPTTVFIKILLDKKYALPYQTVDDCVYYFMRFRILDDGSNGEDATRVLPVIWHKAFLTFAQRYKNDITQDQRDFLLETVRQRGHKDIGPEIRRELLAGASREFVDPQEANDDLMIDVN
The assay is described as above.

B1: Fap7 (enzyme, S. cerevisiae, UniProt Q12055 1-197, looked up)
chain: MEARRYGPNIIVTGTPGCGKSSTCEFLKNKLKDYKYYNISDFAKDNDCFEGYDEGRKSHIVDEDKLLDMLEPLLRQGNSIVDWHVNDVFPERLIDLVVVLRCDNSNLYSRLHARGYHDSKIEENLDAEIMGVVKQDAVESYEPHIVVELQSDTKEDMVSNVSRIVAWEKMWLEQHPDGVTNEYQGPRSDDEDDEDSE
notes: Fap7, conserved ATPase, S. cerevisiae (YDL166C); only the complex is printed as His6-Fap7:uS11; also called purified Fap7; Fap7 alone; source: E. coli BL21, purified
On to B1, for which the binding result in assay [1], in assay [2], in assay [3], in assay [4] and in assay [5] was “no binding” each time.

B2: uS3 (endogenous), P05750 1-240 (protein)
chain: MVALISKKRKLVADGVFYAELNEFFTRELAEEGYSGVEVRVTPTKTEVIIRATRTQDVLGENGRRINELTLLVQKRFKYAPGTIVLYAERVQDRGLSAVAQAESMKFKLLNGLAIRRAAYGVVRYVMESGAKGCEVVVSGKLRAARAKAMKFADGFLIHSGQPVNDFIDTATRHVLMRQGVLGIKVKIMRDPAKSRTGPKALPDAVTIIEPKEEEPILAPSVKDYRPAEETEAQAEPVEA
Take B2: the binding result in assay [6] is listed as “binds”.

B3: uS7 (endogenous) (protein, UniProt P26783 1-225)
chain: MSDTEAPVEVQEDFEVVEEFTPVVLATPIPEEVQQAQTEIKLFNKWSFEEVEVKDASLVDYVQVRQPIFVAHTAGRYANKRFRKAQCPIIERLTNSLMMNGRNNGKKLKAVRIIKHTLDIINVLTDQNPIQVVVDAITNTGPREDTTRVGGGGAARRQAVDVSPLRRVNQAIALLTIGAREAAFRNIKTIAETLAEELINAAKGSSTSYAIKKKDELERVAKSNR
In the case of B3, the binding result in assay [7] is on record as “binds”.
